Data from the supplement of paper PMC12542422.
Structures can show the parent of a compound that is named as a salt. ± gives the standard deviation of the averaged measurements. The list shows a part of the results. These are raw signals, not scaled to a control.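 Ribosome-assembly readouts in HeLa cells were imaged via ENP1 staining, with or without export block, or inducible tagged ribosomal protein reporters. Machine learning classified per-cell signal location versus solvent (DMSO) controls. Hits surpassed the DMSO false-positive mean by five standard deviations and were visually confirmed; three biological replicates.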

The compounds below were run on HeLa RPS2-YFP reporter (assay: fraction of reporter-positive cells with nuclear (nucleolar or nucleolar/nucleoplasmic) RPS2-YFP (MainHitrate); higher = more cells with nucleolar/nuclear readout signal (for ENP1 -LMB: less RNAPI inhibition; for +LMB ENP1 and RP reporters: stronger nuclear/nucleolar retention, i.e. ribosome biogenesis defect)). Conditions: concentration: 1 µM; treatment time: 6 h.
`CNC(=O)Oc1ccc2c(c1)[C@]1(C)CCN(C)[C@@H]1N2C` [Physostigmine Hemisulfate Salt] was tested, and the “fraction of reporter-positive cells with nuclear” value (“fraction” for short) was 0.142 ± 0.11.
`CN1C(=O)CCS(=O)(=O)C1c1ccc(Cl)cc1` (stereo unspecified) [Chlormezanone (Trancopal)] was tested, and the “fraction” value was 0.117 ± 0.043.
With `C[C@@H]1O[C@@H](O[C@H]2C[C@@H](O)[C@]3(CO)[C@H]4[C@H](O)C[C@]5(C)[C@@H](C6=CC(=O)OC6)CC[C@]5(O)[C@@H]4CC[C@]3(O)C2)[C@H](O)[C@H](O)[C@H]1O` [Ouabain] the “fraction” value was 0.102 ± 0.061.
In the case of `CCC1(C)CC(=O)NC(=O)C1` [Bemegride], the “fraction” value is reported as 0.128 ± 0.07.
With `CN1[C@@H]2CC(O)C[C@H]1[C@@H]1O[C@@H]12` (stereo partly specified) [Scopine] the “fraction” value was 0.107 ± 0.055.
`C[C@]12CC[C@H](O)CC1=CC[C@@H]1[C@@H]2CC[C@]2(C)C(=O)CC[C@@H]12` [Dehydroepiandrosterone (DHEA)] was tested, and the “fraction” value was 0.107 ± 0.087.
`CN1[C@@H]2CC[C@H]1C[C@@H](OC(=O)C(CO)c1ccccc1)C2` (stereo partly specified) [Atropine] was tested, and the “fraction” value was 0.108 ± 0.084.
In the case of `O=S(=O)(F)Cc1ccccc1` [PMSF (Phenylmethylsulfonyl Fluoride)], the “fraction” value is reported as 0.119 ± 0.1.
In the case of `CC[C@@H](C(N)=O)N1CCCC1=O` [Levetiracetam], the “fraction” value is reported as 0.122 ± 0.07.
`CNC(=O)Oc1ccc2c(c1)[C@]1(C)CCN(C)[C@@H]1N2C` [Physostigmine Salicylate] was tested, and the “fraction” value was 0.176 ± 0.18.
`N.N.[Cl][Pt][Cl]` [Cisplatin] was tested, and the “fraction” value was 0.122 ± 0.04.
For `CN(C)C(=O)Oc1cccc([N+](C)(C)C)c1` [Neostigmine bromide (Prostigmin)], the “fraction” value was 0.101 ± 0.058.
In the case of `CN1CCc2cc3c(cc2C1O)OCO3` (stereo unspecified) [Hydrastinine HCl], the “fraction” value is reported as 0.17 ± 0.12.
In the case of `CCC1=C[C@H]2CN3CCc4c([nH]c5ccccc45)[C@](C(=O)OC)(C2)[C@H]13` [Catharanthine], the “fraction” value is reported as 0.132 ± 0.095.
In the case of `C[N+]1(C)CCOC(O)(c2ccc(-c3ccc(C4(O)C[N+](C)(C)CCO4)cc3)cc2)C1` (stereo unspecified) [Hemicholinium Bromide], the “fraction” value is reported as 0.159 ± 0.17.
With `Nc1nc(N)nc(NC2CC2)n1` [Cyromazine] the “fraction” value was 0.129 ± 0.11.
With `CC1C=CC=CCCC=CC=CC=CC=CC(OC2OC(C)C(O)C(N)C2O)CC2OC(O)(CC(O)C(O)CCC(O)CC(O)CC(O)CC(=O)OC(C)C(C)C1O)CC(O)C2C(=O)O` (stereo unspecified) [Nystatin (Mycostatin)] the “fraction” value was 0.123 ± 0.075.
In the case of `C[N+]1(C)[C@@H]2C[C@@H](OC(=O)[C@H](CO)c3ccccc3)C[C@H]1[C@@H]1O[C@@H]12` [Methscopolamine (Pamine)], the “fraction” value is reported as 0.0828 ± 0.062.
For `CN1[C@@H]2C[C@@H](OC(=O)[C@H](CO)c3ccccc3)C[C@H]1[C@@H]1O[C@@H]12` [Scopolamine hydrobromide], the “fraction” value was 0.136 ± 0.064.
`CC(=O)OC1CN2CCC1CC2` (stereo unspecified) [Aceclidine HCl] was tested, and the “fraction” value was 0.221 ± 0.14.
In the case of `C[N+](C)(C)CCCCCCCCCC[N+](C)(C)C` [Decamethonium bromide], the “fraction” value is reported as 0.119 ± 0.12.
`C[N+]1(C)CCCC(OC(=O)C(O)(c2ccccc2)c2ccccc2)C1` (stereo unspecified) [Mepenzolate Bromide] was tested, and the “fraction” value was 0.227 ± 0.2.
`Cc1cccc(C)c1NC(=O)CN1CCCC1=O` [Nefiracetam (Translon)] was tested, and the “fraction” value was 0.074 ± 0.032.
With `CC(O)(CS(=O)(=O)c1ccc(F)cc1)C(=O)Nc1ccc(C#N)c(C(F)(F)F)c1` (stereo unspecified) [Bicalutamide (Casodex)] the “fraction” value was 0.119 ± 0.067.
`C[C@]12C/C(=C/O)C(=O)C[C@@H]1CC[C@@H]1[C@@H]2CC[C@@]2(C)[C@H]1CC[C@]2(C)O` [Oxymetholone] was tested, and the “fraction” value was 0.116 ± 0.088.
For `O=c1[nH]c2ccccc2n1C1CCN(CCCC(c2ccc(F)cc2)c2ccc(F)cc2)CC1` [Pimozide], the “fraction” value was 0.216 ± 0.18.
With `Cc1cc(O)ccc1Cl` [Chlorocresol] the “fraction” value was 0.133 ± 0.092.
For `O=C(O)c1nn(Cc2ccc(Cl)cc2Cl)c2ccccc12` [Lonidamine], the “fraction” value was 0.127 ± 0.11.

Each compound was assayed on HeLa RPL29-GFP reporter (assay: fraction of reporter-positive cells with nuclear (nucleolar or nucleolar/nucleoplasmic) RPL29-GFP (MainHitrate); higher = more cells with nucleolar/nuclear readout signal (for ENP1 -LMB: less RNAPI inhibition; for +LMB ENP1 and RP reporters: stronger nuclear/nucleolar retention, i.e. ribosome biogenesis defect)). Conditions: concentration: 1 µM; treatment time: 6 h.
`CNC(=O)Oc1ccc2c(c1)[C@]1(C)CCN(C)[C@@H]1N2C` [Physostigmine Hemisulfate Salt] was tested, and the “fraction” value was 0.334 ± 0.18.
With `CN1C(=O)CCS(=O)(=O)C1c1ccc(Cl)cc1` (stereo unspecified) [Chlormezanone (Trancopal)] the “fraction” value was 0.213 ± 0.054.
In the case of `C[C@@H]1O[C@@H](O[C@H]2C[C@@H](O)[C@]3(CO)[C@H]4[C@H](O)C[C@]5(C)[C@@H](C6=CC(=O)OC6)CC[C@]5(O)[C@@H]4CC[C@]3(O)C2)[C@H](O)[C@H](O)[C@H]1O` [Ouabain], the “fraction” value is reported as 0.235 ± 0.1.
With `CCC1(C)CC(=O)NC(=O)C1` [Bemegride] the “fraction” value was 0.233 ± 0.058.
With `CN1[C@@H]2CC(O)C[C@H]1[C@@H]1O[C@@H]12` (stereo partly specified) [Scopine] the “fraction” value was 0.229 ± 0.068.
With `C[C@]12CC[C@H](O)CC1=CC[C@@H]1[C@@H]2CC[C@]2(C)C(=O)CC[C@@H]12` [Dehydroepiandrosterone (DHEA)] the “fraction” value was 0.226 ± 0.07.
For `CN1[C@@H]2CC[C@H]1C[C@@H](OC(=O)C(CO)c1ccccc1)C2` (stereo partly specified) [Atropine], the “fraction” value was 0.237 ± 0.088.
`O=S(=O)(F)Cc1ccccc1` [PMSF (Phenylmethylsulfonyl Fluoride)] was tested, and the “fraction” value was 0.21 ± 0.057.
For `CC[C@@H](C(N)=O)N1CCCC1=O` [Levetiracetam], the “fraction” value was 0.204 ± 0.063.
`CNC(=O)Oc1ccc2c(c1)[C@]1(C)CCN(C)[C@@H]1N2C` [Physostigmine Salicylate] was tested, and the “fraction” value was 0.288 ± 0.24.
`N.N.[Cl][Pt][Cl]` [Cisplatin] was tested, and the “fraction” value was 0.207 ± 0.05.
`CN(C)C(=O)Oc1cccc([N+](C)(C)C)c1` [Neostigmine bromide (Prostigmin)] was tested, and the “fraction” value was 0.245 ± 0.076.
With `CN1CCc2cc3c(cc2C1O)OCO3` (stereo unspecified) [Hydrastinine HCl] the “fraction” value was 0.263 ± 0.18.
With `CCC1=C[C@H]2CN3CCc4c([nH]c5ccccc45)[C@](C(=O)OC)(C2)[C@H]13` [Catharanthine] the “fraction” value was 0.203 ± 0.037.
`C[N+]1(C)CCOC(O)(c2ccc(-c3ccc(C4(O)C[N+](C)(C)CCO4)cc3)cc2)C1` (stereo unspecified) [Hemicholinium Bromide] was tested, and the “fraction” value was 0.289 ± 0.21.
With `Nc1nc(N)nc(NC2CC2)n1` [Cyromazine] the “fraction” value was 0.213 ± 0.081.
`CC1C=CC=CCCC=CC=CC=CC=CC(OC2OC(C)C(O)C(N)C2O)CC2OC(O)(CC(O)C(O)CCC(O)CC(O)CC(O)CC(=O)OC(C)C(C)C1O)CC(O)C2C(=O)O` (stereo unspecified) [Nystatin (Mycostatin)] was tested, and the “fraction” value was 0.236 ± 0.086.
With `C[N+]1(C)[C@@H]2C[C@@H](OC(=O)[C@H](CO)c3ccccc3)C[C@H]1[C@@H]1O[C@@H]12` [Methscopolamine (Pamine)] the “fraction” value was 0.22 ± 0.081.
With `CN1[C@@H]2C[C@@H](OC(=O)[C@H](CO)c3ccccc3)C[C@H]1[C@@H]1O[C@@H]12` [Scopolamine hydrobromide] the “fraction” value was 0.24 ± 0.068.
With `CC(=O)OC1CN2CCC1CC2` (stereo unspecified) [Aceclidine HCl] the “fraction” value was 0.405 ± 0.23.
`C[N+](C)(C)CCCCCCCCCC[N+](C)(C)C` [Decamethonium bromide] was tested, and the “fraction” value was 0.205 ± 0.072.
With `C[N+]1(C)CCCC(OC(=O)C(O)(c2ccccc2)c2ccccc2)C1` (stereo unspecified) [Mepenzolate Bromide] the “fraction” value was 0.309 ± 0.3.
For `Cc1cccc(C)c1NC(=O)CN1CCCC1=O` [Nefiracetam (Translon)], the “fraction” value was 0.267 ± 0.07.
For `CC(O)(CS(=O)(=O)c1ccc(F)cc1)C(=O)Nc1ccc(C#N)c(C(F)(F)F)c1` (stereo unspecified) [Bicalutamide (Casodex)], the “fraction” value was 0.192 ± 0.057.
For `C[C@]12C/C(=C/O)C(=O)C[C@@H]1CC[C@@H]1[C@@H]2CC[C@@]2(C)[C@H]1CC[C@]2(C)O` [Oxymetholone], the “fraction” value was 0.235 ± 0.048.
`O=c1[nH]c2ccccc2n1C1CCN(CCCC(c2ccc(F)cc2)c2ccc(F)cc2)CC1` [Pimozide] was tested, and the “fraction” value was 0.253 ± 0.16.
`Cc1cc(O)ccc1Cl` [Chlorocresol] was tested, and the “fraction” value was 0.231 ± 0.062.
With `O=C(O)c1nn(Cc2ccc(Cl)cc2Cl)c2ccccc12` [Lonidamine] the “fraction” value was 0.212 ± 0.081.
